Results reported in PMC4900676.

How the values were obtained:
[1] = molecular target: T1, Myc-Smo (Drosophila Smoothened, Myc-tagged) (Drosophila) (UniProt P91682); assay: co-IP; S2 cells transfected with the indicated constructs, grown with or without Hh-conditioned medium for 24 h (MG132 50 μM for 4 h before harvest in Fig 7A-D and G); lysates precipitated with Myc (HA or Flag) antibody and protein A-Sepharose, western blot
T1 sequence: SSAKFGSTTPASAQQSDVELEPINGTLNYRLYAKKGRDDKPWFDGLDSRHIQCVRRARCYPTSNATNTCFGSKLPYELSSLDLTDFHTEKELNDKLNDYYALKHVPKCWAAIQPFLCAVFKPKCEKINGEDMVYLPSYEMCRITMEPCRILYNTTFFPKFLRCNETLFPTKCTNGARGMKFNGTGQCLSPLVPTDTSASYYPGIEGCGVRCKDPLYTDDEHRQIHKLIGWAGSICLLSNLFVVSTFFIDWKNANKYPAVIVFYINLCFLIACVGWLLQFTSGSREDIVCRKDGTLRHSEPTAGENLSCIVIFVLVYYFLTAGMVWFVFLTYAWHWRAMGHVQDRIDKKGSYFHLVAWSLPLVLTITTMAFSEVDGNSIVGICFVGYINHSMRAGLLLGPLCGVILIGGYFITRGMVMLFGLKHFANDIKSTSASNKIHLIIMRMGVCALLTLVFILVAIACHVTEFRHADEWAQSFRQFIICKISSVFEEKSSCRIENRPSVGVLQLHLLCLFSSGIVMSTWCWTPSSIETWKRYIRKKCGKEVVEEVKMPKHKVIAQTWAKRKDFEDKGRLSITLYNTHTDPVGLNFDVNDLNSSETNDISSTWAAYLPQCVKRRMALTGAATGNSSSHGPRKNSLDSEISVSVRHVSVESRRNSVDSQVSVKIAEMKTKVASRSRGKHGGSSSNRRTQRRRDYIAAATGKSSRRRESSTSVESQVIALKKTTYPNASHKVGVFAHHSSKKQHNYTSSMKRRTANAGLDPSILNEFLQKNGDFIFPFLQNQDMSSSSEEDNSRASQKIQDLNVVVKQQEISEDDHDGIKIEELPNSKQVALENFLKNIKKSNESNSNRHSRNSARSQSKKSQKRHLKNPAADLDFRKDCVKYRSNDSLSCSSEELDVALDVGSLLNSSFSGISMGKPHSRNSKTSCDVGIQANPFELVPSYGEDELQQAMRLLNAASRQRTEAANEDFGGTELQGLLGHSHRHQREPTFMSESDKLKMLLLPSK

[2] = molecular target: T2, Myc-SmoΔC650 (Drosophila) (UniProt P91682); assay: as above
T2 sequence: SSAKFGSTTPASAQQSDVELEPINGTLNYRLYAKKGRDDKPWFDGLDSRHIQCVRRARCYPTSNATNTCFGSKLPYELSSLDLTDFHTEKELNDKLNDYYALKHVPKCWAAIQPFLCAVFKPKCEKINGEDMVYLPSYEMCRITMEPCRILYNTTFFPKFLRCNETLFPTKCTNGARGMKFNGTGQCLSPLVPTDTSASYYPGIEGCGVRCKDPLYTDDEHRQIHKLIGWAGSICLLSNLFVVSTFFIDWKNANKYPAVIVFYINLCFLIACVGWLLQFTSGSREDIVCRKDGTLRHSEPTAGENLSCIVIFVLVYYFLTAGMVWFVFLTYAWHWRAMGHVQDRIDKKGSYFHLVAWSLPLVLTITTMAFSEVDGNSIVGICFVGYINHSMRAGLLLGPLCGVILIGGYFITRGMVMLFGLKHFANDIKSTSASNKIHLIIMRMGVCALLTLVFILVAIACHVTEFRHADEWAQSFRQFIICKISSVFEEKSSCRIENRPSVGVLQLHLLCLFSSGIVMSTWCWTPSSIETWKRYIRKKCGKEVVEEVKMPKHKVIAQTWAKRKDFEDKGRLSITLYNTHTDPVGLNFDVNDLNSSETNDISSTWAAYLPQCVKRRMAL

| binding [1] | binding [2] | Substance |
| --- | --- | --- |
| binds | binds | HA-Gish (Drosophila) (enzyme) |
| binds | – | endogenous Gish (Gilgamesh, Drosophila CK1γ) (enzyme) |

Results are given in words; binding and its absence hold for the method and conditions named. Binding seen in cells or lysates may run through a third protein. A result given as binding can be weak or reduced; the word gives no strength. Tags and fused reporters may be left off the sequences shown.
